# Data: patent US7291458B2, “Leptin-mediated gene-induction” (Vlaams Interuniversitair Instituut Voor Biotechnologie VZW, priority 1998, dated 2007)
# At least one structure is not confirmed: it was looked up by name or label, or the drawing left a doubt.
# Tests used:
# PC12-LR8 cells = experiment: Northern blot analysis of gene induction in non-differentiated PC12-LR8 cells; assay type: cell-based, rat
# Experimental: PC12-LR8 cells were treated with leptin (L), forskolin (F), or a combination of both (F/L) for the indicated length of time. Hybridization with the mouse b-actin probe was used as a control. NI stands for non-induced control cells. Sizes of transcripts are shown on the right. Exposure times to Biomax MS films were 5.5 days for LIP-I and LIP-II, and 1 day for the corresponding b-actin blot, all at −80° C.
# FIG. 6A. Induction patterns of Reg I, HIP-I and peripherin after a 12 hours stimulation with forskolin (F), leptin (L), forskolin plus leptin (F/L), hyper-IL-6 (H) or forskolin plus hyper-IL-6 (F/H). Untreated cells were analyzed as a control (NI). Exposure times to BioMax MS films for Reg I, HIP-I and b-actin were 4 days, 5 days and 3 hours, respectively; and in a separate experiment for peripherin and b-actin, 16 hours and 2 days.
# FIG. 6B Induction patterns of PAP I, PAP III, MT-II, Fnk, MRF-1, SOCS-3 and STAT-3 after stimulation with leptin (L) or hyper-IL-6 (H), compared to non-treated control cells (NI). In all cases stimulation was for 12 hours, with the exception of PAP III where stimulation was for 24 hours. b-actin hybridization patterns are shown as control. Exposure times to BioMax MS films at −80° C. were 16 hours for PAP I and 1 hour for b-actin; 4 days for PAP III and 1 hour for b-actin; 3 days for MT-II and Fnk, and2 days for b-actin; 3 days for MRF-1, 2.5 days for SOCS-3 and2 days for b-actin; and 16 hours for STAT-3 and 3 hours for b-actin.
# FIG. 8A. Northern blot analysis of the immediate early response genes. PC12-LR8 cells were left untreated (NI: non induced), or were treated with forskolin (F), leptin (L) or a combination of both (F/L) for the indicated time points. Exposure times to BioMax MS films for the different transcripts were Fnk: 6 days, MT-II: 5 days, MRF-1: 6 days, SOCS-3: 14 hours, STAT-3: 14 hours, b-actin: 5 hours.
# FIG. 8B. Immediate early response gene-set: early kinetics. PC12-LR8 cells were treated with leptin alone (L) or with a combination of leptin and forskolin (F/L) for the indicated length of time. Exposure time to BioMax MS films were: Fnk: 3 days, MT-II: 3 days, MRF-1: 3 days, SOCS-3: 2.5 days, STAT-3: 2.5 days, b-actin: 1 hour.
# FIG. 8C. Northern blot analysis of the late target genes. PC12-LR8 cells were left untreated (NI), or were treated with forskolin (F), leptin (L) or a combination of both (F/L) for the indicated length of time. Exposure times to BioMax MS films were: Ann VIII: 6 days, PAP I: 14 hours, Squalene Epoxidase: 5 days, UGT: 5 days, b-actin: 14 hours.
# PC12 cells were cultured in RPMI 1640 medium with glutamax-I (GibcoBRL) containing 10% heat-inactivated foetal calf serum (iFCS) and gentamycin (50 μg/ml). […]
# [1] = molecular target: T1, long isoform of the mouse leptin receptor (Mus musculus, UniProt P48356); experiment: rNPY promoter luciferase reporter in PC12 cells transiently transfected with pMET7-mLRlo; assay type: cell-based
# T1 construct: expressed in transfected cells; host or cells: PC12 (rat pheochromocytoma), transient electroporation with pMET7-mLRlo
# T1 sequence (P48356 22-1162): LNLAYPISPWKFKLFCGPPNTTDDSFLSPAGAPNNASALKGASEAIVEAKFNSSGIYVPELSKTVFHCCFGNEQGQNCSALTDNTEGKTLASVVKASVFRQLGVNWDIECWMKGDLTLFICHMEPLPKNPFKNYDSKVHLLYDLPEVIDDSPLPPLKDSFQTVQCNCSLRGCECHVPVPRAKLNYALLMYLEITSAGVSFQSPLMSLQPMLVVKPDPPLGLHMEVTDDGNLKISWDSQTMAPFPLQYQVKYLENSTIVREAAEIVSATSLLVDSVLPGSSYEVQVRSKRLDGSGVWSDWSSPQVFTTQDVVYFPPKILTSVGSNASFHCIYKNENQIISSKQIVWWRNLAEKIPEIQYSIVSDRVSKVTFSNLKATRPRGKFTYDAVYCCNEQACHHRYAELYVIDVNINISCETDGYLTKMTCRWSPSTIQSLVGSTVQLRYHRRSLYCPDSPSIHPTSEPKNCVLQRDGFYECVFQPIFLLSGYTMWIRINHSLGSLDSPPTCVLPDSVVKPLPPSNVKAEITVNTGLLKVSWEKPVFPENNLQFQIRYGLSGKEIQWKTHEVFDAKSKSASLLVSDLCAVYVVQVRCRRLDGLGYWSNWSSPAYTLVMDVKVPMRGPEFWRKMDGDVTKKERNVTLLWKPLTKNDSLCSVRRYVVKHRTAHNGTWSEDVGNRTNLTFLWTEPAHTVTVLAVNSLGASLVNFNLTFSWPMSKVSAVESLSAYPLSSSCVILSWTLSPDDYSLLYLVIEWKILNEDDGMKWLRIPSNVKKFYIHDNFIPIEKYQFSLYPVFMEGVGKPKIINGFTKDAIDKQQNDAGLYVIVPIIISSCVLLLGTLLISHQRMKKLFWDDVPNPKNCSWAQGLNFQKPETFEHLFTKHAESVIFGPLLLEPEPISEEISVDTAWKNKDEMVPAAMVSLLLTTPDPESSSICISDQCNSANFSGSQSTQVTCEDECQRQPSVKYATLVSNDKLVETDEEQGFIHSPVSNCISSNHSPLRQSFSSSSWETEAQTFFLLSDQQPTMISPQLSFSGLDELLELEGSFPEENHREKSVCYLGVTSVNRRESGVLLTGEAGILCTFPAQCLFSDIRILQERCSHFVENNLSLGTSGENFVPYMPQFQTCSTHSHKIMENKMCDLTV
# Experimental: FIG. 1A. Leptin-induced NPY promoter activity in transiently transfected PC12 cells. PC12 cells were co-transfected with control vector (columns 1 and 2), pMET7-mLRsh (columns 3 and 4) or pMET7-mLRlo (columns 5 and 6) together with the pGL3-rNPYluc reporter. The different subcultures were mock stimulated (growth medium alone) or treated with mouse leptin (100 ng/ml) for 72 hours. Luciferase activity in cell lysates is shown; data represent the mean±standard deviation values of assays performed in triplicate.
# FIG. 1B. Forskolin co-stimulation on leptin-induced pGL3-rNPY luciferase activity. PC12 cells were transiently co-transfected with pMET7-mLRlo and the pGL3-rNPYluc reporter. Subcultures were treated with mouse leptin alone (filled squares) or in combination with forskolin at a concentration of 10 μM (filled triangles). After 72 hours, cells were lysed and assayed for luciferase activity. Average values of normalized, relative luciferase activities (x-fold increase) from three independent experiments are shown.
# In order to study leptin receptor signaling in a neuro-endocrine-related cell type, we transiently transfected PC12 cells with expression vectors for the long or the short isoform of the mouse leptin receptor (pMET7-mLRlo and pMET7-mLRsh respectively) and monitored gene induction by leptin. The PC12 cell line was established from a transplantable rat adrenal pheochromocytoma and is frequently used as a model system for differentiation of neuronal cells. […]
# The pMet7 vector was used as an expression vector for the long and short isoforms of the mouse leptin receptor (designated pMET7-mLRlo and pMET7-mLRsh, respectively). pMet7 is a modified version of the mammalian pME18S expression vector that utilizes the SRaa promoter as described by Takebe (Takebe et al., 1988). […] Cell surface expression of each protein was measured by specific binding of the leptin-secreted alkaline phosphatase fusion protein (see below).
# Luciferase activity was measured in transfected cells by chemiluminescence. […]
# [2] = leptin plus forskolin, rNPY luciferase
compound,measurement,setting,value
"C=C[C@@]1(C)CC(=O)[C@]2(O)[C@@]3(C)[C@@H](O)CCC(C)(C)[C@@H]3[C@H](O)[C@H](OC(C)=O)[C@@]2(C)O1 [forskolin, reference compound]",forskolin co-stimulation of leptin induction,PC12-LR8 cells; LIP-I and LIP-II,no forskolin co-stimulatory effect
same,forskolin co-stimulation of leptin induction,"PC12-LR8 cells; MT-II and MRF-1, only at later time points",some co-stimulation
same,forskolin co-stimulation of leptin induction,"PC12-LR8 cells; PAP I, UGT, Ann VIII, squalene epoxidase, from 22 hours post stimulation",strong co-stimulatory effect
same,forskolin co-treatment effect on leptin induction,PC12-LR8 cells; SOCS-3,reduced induction
same,enhanced reporter activity on co-stimulation with leptin,[1]; forskolin co-stimulation of leptin-induced rNPY luciferase,up to 14 fold
same,optimal co-stimulatory concentration,[1]; [2],10 µM
same,time of optimal co-stimulatory effect post stimulation,[1]; [2],approximately 72 hours
